These are yes or no findings as the source states them, for the method shown.
Target: T1, Biotinylated UvrD (E. coli) (UniProt P03018)
T1 sequence (chain, biotin): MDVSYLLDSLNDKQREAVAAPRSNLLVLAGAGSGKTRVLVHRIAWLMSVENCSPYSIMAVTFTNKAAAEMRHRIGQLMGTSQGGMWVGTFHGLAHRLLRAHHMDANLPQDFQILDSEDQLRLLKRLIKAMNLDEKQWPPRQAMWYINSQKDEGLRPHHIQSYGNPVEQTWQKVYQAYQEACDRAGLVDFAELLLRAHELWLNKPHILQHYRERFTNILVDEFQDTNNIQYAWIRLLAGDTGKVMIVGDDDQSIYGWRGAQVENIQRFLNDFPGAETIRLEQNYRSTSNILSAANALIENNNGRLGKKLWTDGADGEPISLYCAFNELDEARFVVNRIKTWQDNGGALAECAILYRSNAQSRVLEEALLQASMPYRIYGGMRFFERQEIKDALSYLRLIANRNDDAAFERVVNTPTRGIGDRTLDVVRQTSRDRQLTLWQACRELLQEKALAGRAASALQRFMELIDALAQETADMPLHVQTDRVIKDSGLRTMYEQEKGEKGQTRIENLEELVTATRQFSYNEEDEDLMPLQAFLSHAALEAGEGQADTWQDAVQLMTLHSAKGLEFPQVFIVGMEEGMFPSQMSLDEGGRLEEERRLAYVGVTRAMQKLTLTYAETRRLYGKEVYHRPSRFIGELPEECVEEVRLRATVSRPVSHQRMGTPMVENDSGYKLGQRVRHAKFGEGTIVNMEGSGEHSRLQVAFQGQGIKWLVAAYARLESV
Test: SPR

The chains behind the UniProt entries cited, without tags or fusion partners.
UniProt P06710: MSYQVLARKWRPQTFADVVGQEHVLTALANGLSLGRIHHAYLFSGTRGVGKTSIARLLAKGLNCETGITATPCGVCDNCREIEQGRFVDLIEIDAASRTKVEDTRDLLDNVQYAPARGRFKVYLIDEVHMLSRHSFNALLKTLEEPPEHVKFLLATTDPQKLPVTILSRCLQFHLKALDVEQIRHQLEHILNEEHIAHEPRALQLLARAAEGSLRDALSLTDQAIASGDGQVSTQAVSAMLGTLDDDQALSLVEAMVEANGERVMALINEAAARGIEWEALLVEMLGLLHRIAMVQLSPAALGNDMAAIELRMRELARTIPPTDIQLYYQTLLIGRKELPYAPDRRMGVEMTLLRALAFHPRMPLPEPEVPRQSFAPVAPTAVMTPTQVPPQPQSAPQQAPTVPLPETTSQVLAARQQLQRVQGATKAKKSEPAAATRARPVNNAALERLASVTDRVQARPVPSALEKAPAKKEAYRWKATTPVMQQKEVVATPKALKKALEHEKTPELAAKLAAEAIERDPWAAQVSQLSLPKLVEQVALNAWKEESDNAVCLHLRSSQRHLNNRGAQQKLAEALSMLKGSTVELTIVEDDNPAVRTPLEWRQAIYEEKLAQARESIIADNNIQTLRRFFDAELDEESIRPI

binding: no binding (tested: ca. 200-4000 nM)
Substance: Tau (from UniProt P06710 1-643)

Source: article doi:10.1101/2021.02.22.432310
